Where a name gives a salt, the structure may show the parent alone. The list shows a part of the results. The calls rarely recur for the same compound in another form.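 Kinases, fused to nanoluciferase, were expressed in K562 cells; luminescence was measured every 4 h from 2 to 18 h as percent of control (DMSO = 100%, positive control = 0%). A time point is decreased if signal falls significantly (2 sigma). Hits were called by the authors by a rule that is not shown; the count of time points alone does not decide it.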
How the values were obtained:
Experiment in all cases: kinase-Nluc reporter destabilization hit call (1 = scored as downregulated) (binary); higher = compound decreases kinase abundance
Conditions in all cases: K562; 2-18 h
MAPK1 = MAPK1 (UniProt P28482)
MAPK4 = MAPK4 (UniProt P31152)
MAPKAPK2 = MAPKAPK2 (UniProt P49137)
MKNK1 = MKNK1 (UniProt Q9BUB5)
NTRK2 = NTRK2 (UniProt Q16620)
NTRK3 = NTRK3 (UniProt Q16288)
PAK4 = PAK4 (UniProt O96013)
PBK = PBK (UniProt Q96KB5)
PDGFRB = PDGFRB (UniProt P09619)
PDK1 = PDK1 (UniProt Q15118)
PDPK1 = PDPK1 (UniProt O15530)
PIK4CA = PIK4CA (UniProt P42356)
PIK4CB = PIK4CB (UniProt Q9UBF8)
PLK1 = PLK1 (UniProt P53350)
PRKAA1 = PRKAA1 (UniProt Q13131)
PRKCA = PRKCA (UniProt P17252)
PTK2 = PTK2 (UniProt Q05397)
PTK2B = PTK2B (UniProt Q14289)
RAF1 = RAF1 (UniProt P04049)
[1] = molecular target: RAF1_S257L (clone: RAF1_mut) (UniProt P04049)

Chains of the proteins cited; added tags and fusions are not shown. Lines headed by an entry give the natural chain unless they say otherwise; changes in a name come on top.
UniProt P28482, whole entry: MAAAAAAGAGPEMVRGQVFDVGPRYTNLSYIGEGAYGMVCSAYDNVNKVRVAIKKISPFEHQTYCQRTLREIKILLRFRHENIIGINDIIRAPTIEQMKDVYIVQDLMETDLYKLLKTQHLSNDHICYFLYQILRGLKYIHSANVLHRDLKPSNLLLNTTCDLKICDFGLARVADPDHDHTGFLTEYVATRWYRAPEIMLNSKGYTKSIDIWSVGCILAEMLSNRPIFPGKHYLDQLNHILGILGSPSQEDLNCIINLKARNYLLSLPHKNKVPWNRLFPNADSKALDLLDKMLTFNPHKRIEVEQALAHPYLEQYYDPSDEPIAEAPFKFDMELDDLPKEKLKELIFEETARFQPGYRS
UniProt P31152, whole entry: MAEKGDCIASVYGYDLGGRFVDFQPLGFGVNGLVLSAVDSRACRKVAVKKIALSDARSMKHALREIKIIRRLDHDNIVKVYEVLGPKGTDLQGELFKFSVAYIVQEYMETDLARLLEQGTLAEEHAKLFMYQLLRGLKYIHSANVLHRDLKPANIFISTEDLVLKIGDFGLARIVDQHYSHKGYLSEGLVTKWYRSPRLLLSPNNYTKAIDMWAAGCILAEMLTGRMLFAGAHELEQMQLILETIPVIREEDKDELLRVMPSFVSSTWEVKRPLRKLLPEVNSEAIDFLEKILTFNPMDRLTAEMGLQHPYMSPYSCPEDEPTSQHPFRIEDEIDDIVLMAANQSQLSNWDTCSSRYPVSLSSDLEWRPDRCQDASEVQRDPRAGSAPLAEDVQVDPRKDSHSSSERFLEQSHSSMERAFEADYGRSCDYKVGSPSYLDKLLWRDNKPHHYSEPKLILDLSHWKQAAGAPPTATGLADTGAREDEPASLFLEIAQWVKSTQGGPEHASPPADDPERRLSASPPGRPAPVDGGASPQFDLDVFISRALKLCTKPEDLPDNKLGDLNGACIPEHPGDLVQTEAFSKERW
UniProt Q96KB5: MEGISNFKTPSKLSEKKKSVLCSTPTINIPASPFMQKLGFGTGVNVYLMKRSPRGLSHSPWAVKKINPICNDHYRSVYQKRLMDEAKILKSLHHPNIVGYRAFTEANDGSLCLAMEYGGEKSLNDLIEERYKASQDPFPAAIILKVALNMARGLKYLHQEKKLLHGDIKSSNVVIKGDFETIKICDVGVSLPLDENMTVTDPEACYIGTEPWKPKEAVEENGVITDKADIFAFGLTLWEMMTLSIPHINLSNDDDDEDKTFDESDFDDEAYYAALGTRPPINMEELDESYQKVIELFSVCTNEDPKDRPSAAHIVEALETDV
UniProt O15530: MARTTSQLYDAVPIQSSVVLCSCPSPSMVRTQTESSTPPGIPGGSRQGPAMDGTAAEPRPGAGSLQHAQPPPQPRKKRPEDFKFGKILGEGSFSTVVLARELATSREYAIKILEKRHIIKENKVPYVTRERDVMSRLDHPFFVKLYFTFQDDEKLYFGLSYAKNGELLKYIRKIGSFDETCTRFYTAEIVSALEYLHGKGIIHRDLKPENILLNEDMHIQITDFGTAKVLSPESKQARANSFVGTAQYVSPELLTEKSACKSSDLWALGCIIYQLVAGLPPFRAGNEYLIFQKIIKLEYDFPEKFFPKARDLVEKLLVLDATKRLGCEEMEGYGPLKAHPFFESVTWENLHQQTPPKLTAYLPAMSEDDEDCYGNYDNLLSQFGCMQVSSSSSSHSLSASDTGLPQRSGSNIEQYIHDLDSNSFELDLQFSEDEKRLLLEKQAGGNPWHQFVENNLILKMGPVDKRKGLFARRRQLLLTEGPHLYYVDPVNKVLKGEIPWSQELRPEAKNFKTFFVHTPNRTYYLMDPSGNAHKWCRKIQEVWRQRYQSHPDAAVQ
UniProt P42356, whole entry, looked up: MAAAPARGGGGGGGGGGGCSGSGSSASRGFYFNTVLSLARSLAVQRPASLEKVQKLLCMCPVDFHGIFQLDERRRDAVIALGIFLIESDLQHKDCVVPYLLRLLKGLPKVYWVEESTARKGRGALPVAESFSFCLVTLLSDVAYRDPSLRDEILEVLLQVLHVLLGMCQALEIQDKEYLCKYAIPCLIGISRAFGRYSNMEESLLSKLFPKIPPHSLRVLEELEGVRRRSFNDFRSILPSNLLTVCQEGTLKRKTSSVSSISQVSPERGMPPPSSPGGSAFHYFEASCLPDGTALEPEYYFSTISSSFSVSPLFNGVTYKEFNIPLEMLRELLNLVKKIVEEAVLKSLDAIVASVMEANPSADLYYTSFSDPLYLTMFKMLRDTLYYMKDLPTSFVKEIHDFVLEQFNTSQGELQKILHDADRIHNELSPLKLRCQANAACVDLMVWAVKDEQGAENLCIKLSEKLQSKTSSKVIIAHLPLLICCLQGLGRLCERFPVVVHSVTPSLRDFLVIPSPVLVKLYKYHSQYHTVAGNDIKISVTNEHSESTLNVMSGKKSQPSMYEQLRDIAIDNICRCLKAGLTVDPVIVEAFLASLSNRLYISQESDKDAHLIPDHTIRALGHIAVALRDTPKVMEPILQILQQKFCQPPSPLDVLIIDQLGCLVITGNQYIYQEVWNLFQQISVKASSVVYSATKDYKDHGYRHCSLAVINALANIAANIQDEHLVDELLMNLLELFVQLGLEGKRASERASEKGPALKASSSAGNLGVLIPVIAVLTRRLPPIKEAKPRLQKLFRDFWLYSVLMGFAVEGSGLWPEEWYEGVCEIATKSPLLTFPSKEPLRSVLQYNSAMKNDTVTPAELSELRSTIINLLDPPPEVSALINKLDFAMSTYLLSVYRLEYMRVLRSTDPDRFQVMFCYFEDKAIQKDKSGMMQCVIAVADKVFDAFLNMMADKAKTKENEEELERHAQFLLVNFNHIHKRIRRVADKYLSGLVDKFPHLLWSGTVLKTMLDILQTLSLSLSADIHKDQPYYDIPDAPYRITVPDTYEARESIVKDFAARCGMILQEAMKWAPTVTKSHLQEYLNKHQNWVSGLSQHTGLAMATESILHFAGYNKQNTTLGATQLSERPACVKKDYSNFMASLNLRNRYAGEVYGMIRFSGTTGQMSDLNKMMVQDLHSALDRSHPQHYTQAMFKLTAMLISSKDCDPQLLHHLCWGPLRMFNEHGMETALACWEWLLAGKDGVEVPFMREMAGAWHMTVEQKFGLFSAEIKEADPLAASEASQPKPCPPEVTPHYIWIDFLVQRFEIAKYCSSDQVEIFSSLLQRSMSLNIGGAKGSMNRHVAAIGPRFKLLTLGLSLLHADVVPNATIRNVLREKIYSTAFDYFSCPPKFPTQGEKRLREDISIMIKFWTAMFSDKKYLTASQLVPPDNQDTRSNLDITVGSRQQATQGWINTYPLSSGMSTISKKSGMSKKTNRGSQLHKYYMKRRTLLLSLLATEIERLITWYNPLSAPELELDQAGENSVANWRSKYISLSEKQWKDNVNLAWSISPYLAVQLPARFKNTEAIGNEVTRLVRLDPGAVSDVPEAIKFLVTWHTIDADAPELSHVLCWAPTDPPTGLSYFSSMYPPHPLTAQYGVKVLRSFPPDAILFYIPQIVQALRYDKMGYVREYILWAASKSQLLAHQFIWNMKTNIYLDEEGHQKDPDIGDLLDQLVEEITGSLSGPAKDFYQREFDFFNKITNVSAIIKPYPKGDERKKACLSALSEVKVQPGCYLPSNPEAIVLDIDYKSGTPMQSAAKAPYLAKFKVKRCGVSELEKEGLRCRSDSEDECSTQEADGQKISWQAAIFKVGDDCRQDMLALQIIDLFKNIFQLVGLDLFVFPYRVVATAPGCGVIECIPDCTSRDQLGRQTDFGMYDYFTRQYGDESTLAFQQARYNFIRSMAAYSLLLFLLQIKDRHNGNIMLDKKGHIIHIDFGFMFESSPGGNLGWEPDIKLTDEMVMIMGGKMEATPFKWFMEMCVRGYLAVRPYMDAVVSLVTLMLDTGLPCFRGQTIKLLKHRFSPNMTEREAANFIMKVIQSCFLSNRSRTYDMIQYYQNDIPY
UniProt Q9UBF8: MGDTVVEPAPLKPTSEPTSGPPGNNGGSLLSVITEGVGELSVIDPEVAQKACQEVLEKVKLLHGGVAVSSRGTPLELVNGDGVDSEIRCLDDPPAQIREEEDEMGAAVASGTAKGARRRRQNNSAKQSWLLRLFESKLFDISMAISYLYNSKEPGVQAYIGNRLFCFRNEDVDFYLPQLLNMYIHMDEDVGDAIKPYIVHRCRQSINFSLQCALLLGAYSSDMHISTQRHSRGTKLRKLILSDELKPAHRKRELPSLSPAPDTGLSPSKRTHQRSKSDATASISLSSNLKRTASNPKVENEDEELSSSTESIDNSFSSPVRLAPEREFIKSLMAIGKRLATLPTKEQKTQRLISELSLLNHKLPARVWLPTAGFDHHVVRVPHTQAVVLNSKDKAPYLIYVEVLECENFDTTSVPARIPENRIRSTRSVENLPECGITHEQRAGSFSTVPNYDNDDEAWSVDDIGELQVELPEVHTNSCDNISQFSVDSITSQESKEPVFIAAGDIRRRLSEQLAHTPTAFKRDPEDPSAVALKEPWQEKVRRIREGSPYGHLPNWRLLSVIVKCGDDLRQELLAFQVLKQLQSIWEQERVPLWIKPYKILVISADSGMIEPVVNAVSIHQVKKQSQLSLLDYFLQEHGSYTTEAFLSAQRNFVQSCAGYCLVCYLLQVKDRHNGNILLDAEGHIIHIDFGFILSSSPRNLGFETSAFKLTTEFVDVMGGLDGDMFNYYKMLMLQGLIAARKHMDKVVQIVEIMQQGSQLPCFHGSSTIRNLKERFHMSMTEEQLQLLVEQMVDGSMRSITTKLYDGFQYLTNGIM
UniProt P53350, whole entry: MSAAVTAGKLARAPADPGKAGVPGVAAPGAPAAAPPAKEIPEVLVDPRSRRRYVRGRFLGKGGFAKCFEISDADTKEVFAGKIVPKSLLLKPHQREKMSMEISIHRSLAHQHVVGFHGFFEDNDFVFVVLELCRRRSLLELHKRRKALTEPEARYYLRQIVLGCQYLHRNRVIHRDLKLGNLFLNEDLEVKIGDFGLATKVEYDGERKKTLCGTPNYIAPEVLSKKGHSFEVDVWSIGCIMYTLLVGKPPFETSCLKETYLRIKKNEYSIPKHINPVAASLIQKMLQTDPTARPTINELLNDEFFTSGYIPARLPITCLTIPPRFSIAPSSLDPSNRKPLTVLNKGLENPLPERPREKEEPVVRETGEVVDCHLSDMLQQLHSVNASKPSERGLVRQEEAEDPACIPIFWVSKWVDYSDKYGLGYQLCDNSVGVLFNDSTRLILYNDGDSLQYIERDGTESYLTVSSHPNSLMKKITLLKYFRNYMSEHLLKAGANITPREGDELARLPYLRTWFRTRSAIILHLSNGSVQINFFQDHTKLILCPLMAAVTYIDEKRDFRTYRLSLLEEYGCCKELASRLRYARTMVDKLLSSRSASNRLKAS
UniProt Q05397, whole entry, looked up: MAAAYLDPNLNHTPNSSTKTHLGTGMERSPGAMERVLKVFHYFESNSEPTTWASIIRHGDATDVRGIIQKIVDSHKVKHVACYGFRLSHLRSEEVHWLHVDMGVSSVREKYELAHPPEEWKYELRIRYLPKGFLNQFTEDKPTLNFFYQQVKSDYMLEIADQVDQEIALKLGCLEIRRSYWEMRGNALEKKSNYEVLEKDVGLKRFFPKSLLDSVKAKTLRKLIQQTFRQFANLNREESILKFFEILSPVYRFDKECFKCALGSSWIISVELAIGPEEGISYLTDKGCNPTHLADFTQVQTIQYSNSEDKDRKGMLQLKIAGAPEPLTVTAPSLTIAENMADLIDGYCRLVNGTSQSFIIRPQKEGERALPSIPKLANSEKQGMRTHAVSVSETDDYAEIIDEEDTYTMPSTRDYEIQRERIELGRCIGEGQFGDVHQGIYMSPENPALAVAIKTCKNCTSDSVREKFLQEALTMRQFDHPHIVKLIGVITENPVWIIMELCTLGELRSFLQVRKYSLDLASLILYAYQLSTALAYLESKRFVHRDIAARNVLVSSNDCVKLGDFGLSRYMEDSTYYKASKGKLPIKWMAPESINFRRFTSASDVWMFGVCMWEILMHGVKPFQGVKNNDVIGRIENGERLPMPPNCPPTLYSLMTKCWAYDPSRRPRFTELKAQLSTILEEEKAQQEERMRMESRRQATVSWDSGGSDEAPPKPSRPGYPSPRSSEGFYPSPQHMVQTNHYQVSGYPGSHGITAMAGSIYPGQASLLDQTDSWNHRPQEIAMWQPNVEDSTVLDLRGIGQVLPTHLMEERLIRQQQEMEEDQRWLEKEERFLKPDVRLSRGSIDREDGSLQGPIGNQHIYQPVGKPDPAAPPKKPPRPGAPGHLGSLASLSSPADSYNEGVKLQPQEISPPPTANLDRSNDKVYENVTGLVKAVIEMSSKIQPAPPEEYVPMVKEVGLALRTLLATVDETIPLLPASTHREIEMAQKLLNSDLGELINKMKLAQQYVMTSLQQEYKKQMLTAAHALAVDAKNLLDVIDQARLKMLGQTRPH

SMILES | kinase-Nluc reporter destabilization hit call (MAPK1) | kinase-Nluc reporter destabilization hit call (MAPK4) | kinase-Nluc reporter destabilization hit call (MAPKAPK2) | kinase-Nluc reporter destabilization hit call (MKNK1) | kinase-Nluc reporter destabilization hit call (NTRK2) | kinase-Nluc reporter destabilization hit call (NTRK3) | kinase-Nluc reporter destabilization hit call (PAK4) | kinase-Nluc reporter destabilization hit call (PBK) | kinase-Nluc reporter destabilization hit call (PDGFRB) | kinase-Nluc reporter destabilization hit call (PDK1) | kinase-Nluc reporter destabilization hit call (PDPK1) | kinase-Nluc reporter destabilization hit call (PIK4CA) | kinase-Nluc reporter destabilization hit call (PIK4CB) | kinase-Nluc reporter destabilization hit call (PLK1) | kinase-Nluc reporter destabilization hit call (PRKAA1) | kinase-Nluc reporter destabilization hit call (PRKCA) | kinase-Nluc reporter destabilization hit call (PTK2) | kinase-Nluc reporter destabilization hit call (PTK2B) | kinase-Nluc reporter destabilization hit call (RAF1) | kinase-Nluc reporter destabilization hit call [1]
Cc1c(NC(=O)c2cc3c(s2)CCCC3)cccc1-c1cn(C)c(=O)c(Nc2ccc([C@@H]3C(=O)N(C)CCN3C)cc2)n1 (10 µM) | inactive: 0 | inactive: 0 | inactive: 0 | inactive: 0 | inactive: 0 | inactive: 0 | inactive: 0 | inactive: 0 | inactive: 0 | inactive: 0 | inactive: 0 | inactive: 0 | inactive: 0 | inactive: 0 | inactive: 0 | inactive: 0 | inactive: 0 | inactive: 0 | inactive: 0 | inactive: 0
COc1cc2ncn(-c3cc(OCc4ccccc4C(F)(F)F)c(C(N)=O)s3)c2cc1OC (10 µM) | inactive: 0 | inactive: 0 | inactive: 0 | inactive: 0 | inactive: 0 | inactive: 0 | inactive: 0 | inactive: 0 | inactive: 0 | inactive: 0 | inactive: 0 | inactive: 0 | inactive: 0 | inactive: 0 | inactive: 0 | inactive: 0 | active: 1 | inactive: 0 | inactive: 0 | inactive: 0
CCOc1cc2ncc(C#N)c(Nc3ccc(OCc4ccccn4)c(Cl)c3)c2cc1NC(=O)/C=C/CN(C)C [Neratinib] (10 µM) | inactive: 0 | inactive: 0 | inactive: 0 | inactive: 0 | inactive: 0 | inactive: 0 | inactive: 0 | inactive: 0 | inactive: 0 | inactive: 0 | inactive: 0 | inactive: 0 | inactive: 0 | inactive: 0 | inactive: 0 | inactive: 0 | inactive: 0 | inactive: 0 | inactive: 0 | inactive: 0
Brc1c(Br)c(Br)c2n[nH]nc2c1Br (10 µM) | inactive: 0 | inactive: 0 | inactive: 0 | inactive: 0 | inactive: 0 | inactive: 0 | inactive: 0 | inactive: 0 | inactive: 0 | inactive: 0 | inactive: 0 | inactive: 0 | inactive: 0 | inactive: 0 | inactive: 0 | inactive: 0 | inactive: 0 | inactive: 0 | inactive: 0 | inactive: 0
O=C(NOC[C@H](O)CO)c1ccc(F)c(F)c1Nc1ccc(I)cc1F (2.5 µM) | inactive: 0 | inactive: 0 | inactive: 0 | inactive: 0 | inactive: 0 | inactive: 0 | inactive: 0 | inactive: 0 | inactive: 0 | inactive: 0 | inactive: 0 | inactive: 0 | inactive: 0 | inactive: 0 | inactive: 0 | inactive: 0 | inactive: 0 | inactive: 0 | inactive: 0 | inactive: 0
CC(C)CC(=O)Nc1n[nH]c2c1CN(C(=O)C1CCN(C)CC1)C2(C)C (2.5 µM) | inactive: 0 | inactive: 0 | inactive: 0 | inactive: 0 | inactive: 0 | inactive: 0 | inactive: 0 | inactive: 0 | inactive: 0 | inactive: 0 | inactive: 0 | inactive: 0 | inactive: 0 | inactive: 0 | inactive: 0 | inactive: 0 | inactive: 0 | inactive: 0 | inactive: 0 | inactive: 0
CCCCOc1c(C(=O)c2c(F)cc(C)cc2F)c[nH]c2nncc1-2 (10 µM) | inactive: 0 | inactive: 0 | inactive: 0 | inactive: 0 | inactive: 0 | inactive: 0 | inactive: 0 | inactive: 0 | inactive: 0 | inactive: 0 | inactive: 0 | inactive: 0 | inactive: 0 | inactive: 0 | inactive: 0 | inactive: 0 | inactive: 0 | inactive: 0 | inactive: 0 | inactive: 0
O=C1c2ccccc2-c2n[nH]c3cccc1c23 (10 µM) | inactive: 0 | inactive: 0 | inactive: 0 | inactive: 0 | inactive: 0 | inactive: 0 | inactive: 0 | inactive: 0 | inactive: 0 | inactive: 0 | inactive: 0 | inactive: 0 | inactive: 0 | inactive: 0 | inactive: 0 | inactive: 0 | inactive: 0 | inactive: 0 | inactive: 0 | inactive: 0
Cc1cccc(Cn2nc(C3CC3)c3c(NC(=O)c4cnc5cc(OCCN6CCN(C)CC6)ccn45)cccc32)n1 (10 µM) | inactive: 0 | inactive: 0 | inactive: 0 | inactive: 0 | inactive: 0 | inactive: 0 | inactive: 0 | inactive: 0 | inactive: 0 | inactive: 0 | inactive: 0 | inactive: 0 | inactive: 0 | inactive: 0 | inactive: 0 | inactive: 0 | inactive: 0 | inactive: 0 | inactive: 0 | inactive: 0
CC1(C)CC=C(c2nc(C3CC(C)(C)OC(C)(C)C3)ccc2NC(=O)c2nc(C#N)c[nH]2)CC1 [Edicotinib] (2.5 µM) | inactive: 0 | inactive: 0 | inactive: 0 | inactive: 0 | inactive: 0 | inactive: 0 | inactive: 0 | inactive: 0 | inactive: 0 | inactive: 0 | inactive: 0 | inactive: 0 | inactive: 0 | inactive: 0 | inactive: 0 | inactive: 0 | inactive: 0 | inactive: 0 | inactive: 0 | inactive: 0
O=C1Nc2ccccc2/C1=C/c1ccc(F)cc1 (10 µM) | inactive: 0 | inactive: 0 | inactive: 0 | inactive: 0 | inactive: 0 | inactive: 0 | inactive: 0 | inactive: 0 | inactive: 0 | inactive: 0 | inactive: 0 | inactive: 0 | inactive: 0 | inactive: 0 | inactive: 0 | inactive: 0 | inactive: 0 | inactive: 0 | inactive: 0 | inactive: 0
COc1cc2ncnc(Nc3ccc(O)cc3)c2cc1OC (10 µM) | inactive: 0 | inactive: 0 | inactive: 0 | inactive: 0 | inactive: 0 | inactive: 0 | inactive: 0 | inactive: 0 | inactive: 0 | inactive: 0 | inactive: 0 | inactive: 0 | inactive: 0 | inactive: 0 | inactive: 0 | inactive: 0 | inactive: 0 | inactive: 0 | inactive: 0 | inactive: 0
COc1ccc(C=C(C#N)c2cccnc2)cc1OC (10 µM) | inactive: 0 | inactive: 0 | inactive: 0 | inactive: 0 | inactive: 0 | inactive: 0 | inactive: 0 | inactive: 0 | inactive: 0 | inactive: 0 | inactive: 0 | inactive: 0 | inactive: 0 | inactive: 0 | inactive: 0 | inactive: 0 | inactive: 0 | inactive: 0 | inactive: 0 | inactive: 0
COc1cc(Oc2ccnc3cc(OC)c(OC)cc23)ccc1NC(=O)NC(C)c1nccs1 (stereo not given) (2.5 µM) | inactive: 0 | inactive: 0 | inactive: 0 | inactive: 0 | inactive: 0 | inactive: 0 | inactive: 0 | inactive: 0 | inactive: 0 | inactive: 0 | inactive: 0 | inactive: 0 | inactive: 0 | inactive: 0 | inactive: 0 | inactive: 0 | inactive: 0 | inactive: 0 | inactive: 0 | inactive: 0
CN1CCC(Nc2ncc3ncnc(Nc4ccc(F)c(Cl)c4)c3n2)CC1 [Falnidamol] (10 µM) | inactive: 0 | inactive: 0 | inactive: 0 | inactive: 0 | inactive: 0 | inactive: 0 | inactive: 0 | inactive: 0 | inactive: 0 | inactive: 0 | inactive: 0 | inactive: 0 | inactive: 0 | inactive: 0 | inactive: 0 | inactive: 0 | inactive: 0 | inactive: 0 | inactive: 0 | inactive: 0
Cc1ccc(NC(=O)c2cccc(N(C)C)c2)cc1NC(=O)c1ccc(O)cc1 (10 µM) | inactive: 0 | inactive: 0 | inactive: 0 | inactive: 0 | inactive: 0 | inactive: 0 | inactive: 0 | inactive: 0 | inactive: 0 | inactive: 0 | inactive: 0 | inactive: 0 | inactive: 0 | inactive: 0 | inactive: 0 | inactive: 0 | inactive: 0 | inactive: 0 | inactive: 0 | inactive: 0
CC(C)=CC/C=C(\C)[C@H]1CC[C@]2(C)[C@@H]1[C@H](O)C[C@@H]1[C@@]3(C)CC[C@H](O[C@@H]4O[C@H](CO)[C@@H](O)[C@H](O)[C@H]4O[C@@H]4O[C@H](CO)[C@@H](O)[C@H](O)[C@H]4O)C(C)(C)[C@@H]3CC[C@]12C [Ginsenoside Rg5] (10 µM) | inactive: 0 | inactive: 0 | inactive: 0 | inactive: 0 | inactive: 0 | inactive: 0 | inactive: 0 | inactive: 0 | inactive: 0 | inactive: 0 | inactive: 0 | inactive: 0 | inactive: 0 | inactive: 0 | inactive: 0 | inactive: 0 | inactive: 0 | inactive: 0 | inactive: 0 | inactive: 0
CC(=O)N1CCN(c2ccc(OCC3COC(Cn4ccnc4)(c4ccc(Cl)cc4Cl)O3)cc2)CC1 (stereo not given) [Ketoconazole] (2.5 µM) | inactive: 0 | inactive: 0 | inactive: 0 | inactive: 0 | inactive: 0 | inactive: 0 | inactive: 0 | inactive: 0 | inactive: 0 | inactive: 0 | inactive: 0 | inactive: 0 | inactive: 0 | inactive: 0 | inactive: 0 | inactive: 0 | inactive: 0 | inactive: 0 | inactive: 0 | inactive: 0
CN(C)C[C@@H]1CCn2cc(c3ccccc32)C2=C(C(=O)NC2=O)c2cn(c3ccccc23)CCO1 [Ruboxistaurin (hydrochloride)] (10 µM) | inactive: 0 | inactive: 0 | inactive: 0 | inactive: 0 | inactive: 0 | inactive: 0 | inactive: 0 | inactive: 0 | inactive: 0 | inactive: 0 | inactive: 0 | inactive: 0 | inactive: 0 | inactive: 0 | inactive: 0 | inactive: 0 | inactive: 0 | inactive: 0 | inactive: 0 | inactive: 0

Part of the list above in order of count of non-hydrogen atoms, falling:
SMILES | kinase-Nluc reporter destabilization hit call (MAPK1) | kinase-Nluc reporter destabilization hit call (MAPK4) | kinase-Nluc reporter destabilization hit call (MAPKAPK2) | kinase-Nluc reporter destabilization hit call (MKNK1) | kinase-Nluc reporter destabilization hit call (NTRK2) | kinase-Nluc reporter destabilization hit call (NTRK3) | kinase-Nluc reporter destabilization hit call (PAK4) | kinase-Nluc reporter destabilization hit call (PBK) | kinase-Nluc reporter destabilization hit call (PDGFRB) | kinase-Nluc reporter destabilization hit call (PDK1) | kinase-Nluc reporter destabilization hit call (PDPK1) | kinase-Nluc reporter destabilization hit call (PIK4CA) | kinase-Nluc reporter destabilization hit call (PIK4CB) | kinase-Nluc reporter destabilization hit call (PLK1) | kinase-Nluc reporter destabilization hit call (PRKAA1) | kinase-Nluc reporter destabilization hit call (PRKCA) | kinase-Nluc reporter destabilization hit call (PTK2) | kinase-Nluc reporter destabilization hit call (PTK2B) | kinase-Nluc reporter destabilization hit call (RAF1) | kinase-Nluc reporter destabilization hit call [1]
Cc1cccc(Cn2nc(C3CC3)c3c(NC(=O)c4cnc5cc(OCCN6CCN(C)CC6)ccn45)cccc32)n1 (10 µM) | inactive: 0 | inactive: 0 | inactive: 0 | inactive: 0 | inactive: 0 | inactive: 0 | inactive: 0 | inactive: 0 | inactive: 0 | inactive: 0 | inactive: 0 | inactive: 0 | inactive: 0 | inactive: 0 | inactive: 0 | inactive: 0 | inactive: 0 | inactive: 0 | inactive: 0 | inactive: 0
Cc1ccc(NC(=O)c2cccc(N(C)C)c2)cc1NC(=O)c1ccc(O)cc1 (10 µM) | inactive: 0 | inactive: 0 | inactive: 0 | inactive: 0 | inactive: 0 | inactive: 0 | inactive: 0 | inactive: 0 | inactive: 0 | inactive: 0 | inactive: 0 | inactive: 0 | inactive: 0 | inactive: 0 | inactive: 0 | inactive: 0 | inactive: 0 | inactive: 0 | inactive: 0 | inactive: 0
Brc1c(Br)c(Br)c2n[nH]nc2c1Br (10 µM) | inactive: 0 | inactive: 0 | inactive: 0 | inactive: 0 | inactive: 0 | inactive: 0 | inactive: 0 | inactive: 0 | inactive: 0 | inactive: 0 | inactive: 0 | inactive: 0 | inactive: 0 | inactive: 0 | inactive: 0 | inactive: 0 | inactive: 0 | inactive: 0 | inactive: 0 | inactive: 0

Source: the supplement of paper PMC12823440, “Inhibitors supercharge kinase turnover through native proteolytic circuits” (Nature, 2025)
